Laboratory results reported in patent US20150276749A1 (KONICA MINOLTA, published 2015).
These are yes or no findings as the source states them, for the method shown. Some binding calls cover weakened binding; strength is not graded here.

T1: desmoglein 3 in human blood (serum or plasma) samples (human) (UniProt P32926)
T1 sequence: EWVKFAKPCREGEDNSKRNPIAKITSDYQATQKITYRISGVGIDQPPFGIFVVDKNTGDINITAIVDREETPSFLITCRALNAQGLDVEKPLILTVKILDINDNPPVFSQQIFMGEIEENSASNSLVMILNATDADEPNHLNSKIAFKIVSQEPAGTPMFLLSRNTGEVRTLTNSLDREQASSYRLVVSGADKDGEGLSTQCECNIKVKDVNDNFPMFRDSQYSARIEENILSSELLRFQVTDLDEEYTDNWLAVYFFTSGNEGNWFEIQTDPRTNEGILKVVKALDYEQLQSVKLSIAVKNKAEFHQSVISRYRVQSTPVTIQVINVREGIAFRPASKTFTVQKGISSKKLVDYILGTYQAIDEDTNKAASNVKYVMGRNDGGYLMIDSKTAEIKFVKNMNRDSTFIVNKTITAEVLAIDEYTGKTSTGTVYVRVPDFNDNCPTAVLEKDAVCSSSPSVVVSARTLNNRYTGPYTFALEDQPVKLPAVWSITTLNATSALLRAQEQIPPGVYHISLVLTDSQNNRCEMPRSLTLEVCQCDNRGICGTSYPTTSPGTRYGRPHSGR


Columns and labels:
[1] = target: T1, desmoglein 3 in human blood (serum or plasma) samples (human); experiment: sandwich ELISA on human blood samples; immobilized DF366m, detection biotinylated DF-151
[2] = target: T1, desmoglein 3 in human blood (serum or plasma) samples (human); experiment: sandwich ELISA on human serum samples; immobilized DF366m, detection biotinylated MAB1720

Row | binding [1] | binding [2] | Binder
1 | binds | binds | DF366m (DF366m[I] antibody) (antibody, mouse IgG2a, kappa, V domains shown, Complete antibody; Plain when immobilized; biotinylated (Biotin-AC5-Osu) when used as detection antibody; also called DF366m antibody) VH: EVQLQQSGPELVKPGASVKISCKASGYTFTDYNMDWVKQSHGESLEWIGYIYPNNGGSGYNQKFKSKATLTVDKSSSTAYMELHSLTSEDSAVYYCARRDSYYGFDMAWFAYWGQGTLVTVSA VL: DIQMTQSPASLSASVGETVTITCRPSENIYNNLAWYQQKQGKSPQLLVYVATNLAEGVPSRFSGSGSGTRFSLKINSLQPEDFGKYYCQHSYGTPWTFGGGTKLEIKR
2 | binds |  | DF151 (DF151[I] antibody) (antibody, mouse IgG2b, kappa, V domains shown, Complete antibody; Biotinylated as detection antibody in ELISA; labeled with Alexa Fluor 647 as detection antibody in SPFS; also called DF151 antibody) VH: EVQLQQSGPELVKPGASVKISCKASGYSFTAYYMHWVKQSPEKCLEWIGQINPSTGGTTYNQKFKAKATLTVDKSSSTAYMQLKSLTSEDSAVYYCARWGDSWGQGTTLTVSS VL: DIVLTQSPASLAVSLGQSVTISCRASESVEYYGTSLMQWYQQKPGQPPKLLIYGASDVESGVPARFSGSGSGTDFSLNIHPVEEDDIAMYFCQQSRKVPYTFGSGTKLEIKR
